Source: publication PMC8953689
Where two headings read alike, the source gives them in different places. These are yes or no findings as the source states them, for the method shown. In cells and extracts the contact can be indirect. Some entries that bind do so weakly or less than the wild type. Tags and fused reporters may be left off the sequences shown. Values belong to the molecule of their own block, whether it stands above or below them.

Legend:
Test in all cases: co-IP; HEK-293T cells cotransfected with FLAG-tagged and Xpress-tagged proteins; lysis in buffer A (50 mM Tris-HCl pH 7.4, 150 mM NaCl, 1 mM EDTA, 1% NP-40); FLAG-tagged proteins precipitated from postnuclear supernatants with Anti-Flag M2 affinity gel; copurifying proteins detected by immunoblot with tag-specific antibodies
[1] = biological target: T1, FLAG-tagged PLIN5(Δ424–463) (murine) (UniProt Q8BVZ1)
T1 sequence: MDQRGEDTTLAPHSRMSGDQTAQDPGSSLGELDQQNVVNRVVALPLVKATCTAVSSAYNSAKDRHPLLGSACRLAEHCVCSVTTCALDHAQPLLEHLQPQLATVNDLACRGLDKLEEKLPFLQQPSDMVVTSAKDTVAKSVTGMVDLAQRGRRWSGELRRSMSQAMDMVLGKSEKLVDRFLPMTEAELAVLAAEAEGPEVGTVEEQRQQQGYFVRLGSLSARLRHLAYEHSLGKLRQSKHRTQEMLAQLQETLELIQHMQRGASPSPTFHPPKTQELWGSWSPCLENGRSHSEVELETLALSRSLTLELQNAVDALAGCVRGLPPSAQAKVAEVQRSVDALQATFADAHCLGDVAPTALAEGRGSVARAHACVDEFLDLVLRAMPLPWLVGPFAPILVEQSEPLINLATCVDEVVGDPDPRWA

[2] = biological target: T2, FLAG-tagged PLIN5 (murine perilipin 5, wild type), expressed in HEK-293T (murine) (UniProt Q8BVZ1)
T2 sequence: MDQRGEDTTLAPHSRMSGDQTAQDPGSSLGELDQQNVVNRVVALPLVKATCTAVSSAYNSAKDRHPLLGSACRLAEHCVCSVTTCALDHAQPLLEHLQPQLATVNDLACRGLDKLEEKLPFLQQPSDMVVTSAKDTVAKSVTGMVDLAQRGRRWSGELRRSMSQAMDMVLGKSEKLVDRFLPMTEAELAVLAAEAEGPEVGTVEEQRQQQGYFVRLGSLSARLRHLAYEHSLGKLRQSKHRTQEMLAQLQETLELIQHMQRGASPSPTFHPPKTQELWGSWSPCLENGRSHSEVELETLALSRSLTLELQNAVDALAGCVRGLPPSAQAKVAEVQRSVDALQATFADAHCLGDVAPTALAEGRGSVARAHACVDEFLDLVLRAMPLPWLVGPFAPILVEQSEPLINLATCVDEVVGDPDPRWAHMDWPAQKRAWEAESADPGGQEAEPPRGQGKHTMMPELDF

[3] = biological target: T3, FLAG-PLIN5(Δ444–463) (murine) (UniProt Q8BVZ1)
T3 sequence: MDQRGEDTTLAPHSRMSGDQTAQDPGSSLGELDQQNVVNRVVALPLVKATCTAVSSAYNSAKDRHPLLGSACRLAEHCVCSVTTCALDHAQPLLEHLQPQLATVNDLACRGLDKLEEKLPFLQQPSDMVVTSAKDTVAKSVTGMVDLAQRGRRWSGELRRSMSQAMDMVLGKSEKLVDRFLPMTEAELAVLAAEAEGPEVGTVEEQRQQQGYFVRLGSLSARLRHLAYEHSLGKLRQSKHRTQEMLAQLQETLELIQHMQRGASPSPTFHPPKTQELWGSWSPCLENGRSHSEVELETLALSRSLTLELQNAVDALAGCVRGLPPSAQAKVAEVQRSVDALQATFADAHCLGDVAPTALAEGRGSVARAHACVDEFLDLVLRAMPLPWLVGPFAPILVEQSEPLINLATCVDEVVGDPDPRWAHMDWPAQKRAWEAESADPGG

[4] = biological target: T2, FLAG-tagged PLIN5 (murine perilipin 5, wild type), expressed in HEK-293T (murine); remark: listed apart in the source

binding [1]: binds
binding [2]: binds
Molecule: Xpress-tagged CGI-58 (murine comparative gene identification-58) (from UniProt Q9DBL9-1 1-351)

binding [3]: binds
binding [4]: binds
B1: Xpress-tagged ATGL (murine adipose triglyceride lipase) (enzyme, UniProt Q8BJ56-1 1-486)
chain: MFPRETKWNISFAGCGFLGVYHIGVASCLREHAPFLVANATHIYGASAGALTATALVTGACLGEAGANIIEVSKEARKRFLGPLHPSFNLVKTIRGCLLKTLPADCHERANGRLGISLTRVSDGENVIISHFSSKDELIQANVCSTFIPVYCGLIPPTLQGVRYVDGGISDNLPLYELKNTITVSPFSGESDICPQDSSTNIHELRVTNTSIQFNLRNLYRLSKALFPPEPMVLREMCKQGYRDGLRFLRRNGLLNQPNPLLALPPVVPQEEDAEEAAVVEERAGEEDQLQPYRKDRILEHLPARLNEALLEACVEPKDLMTTLSNMLPVRLATAMMVPYTLPLESAVSFTIRLLEWLPDVPEDIRWMKEQTGSICQYLVMRAKRKLGDHLPSRLSEQVELRRAQSLPSVPLSCATYSEALPNWVRNNLSLGDALAKWEECQRQLLLGLFCTNVAFPPDALRMRAPASPTAADPATPQDPPGLPPC
